Test results: PMC11879137
Results are given in words; binding and its absence hold for the method and conditions named. In cells and extracts the contact can be indirect. Binding calls can cover weak binding; strength is not graded here.

The chains behind the UniProt entries cited, without tags or fusion partners. Where a name states a change or a piece, a line headed by the entry shows the natural chain unless it says otherwise.
UniProt Q9UKI8: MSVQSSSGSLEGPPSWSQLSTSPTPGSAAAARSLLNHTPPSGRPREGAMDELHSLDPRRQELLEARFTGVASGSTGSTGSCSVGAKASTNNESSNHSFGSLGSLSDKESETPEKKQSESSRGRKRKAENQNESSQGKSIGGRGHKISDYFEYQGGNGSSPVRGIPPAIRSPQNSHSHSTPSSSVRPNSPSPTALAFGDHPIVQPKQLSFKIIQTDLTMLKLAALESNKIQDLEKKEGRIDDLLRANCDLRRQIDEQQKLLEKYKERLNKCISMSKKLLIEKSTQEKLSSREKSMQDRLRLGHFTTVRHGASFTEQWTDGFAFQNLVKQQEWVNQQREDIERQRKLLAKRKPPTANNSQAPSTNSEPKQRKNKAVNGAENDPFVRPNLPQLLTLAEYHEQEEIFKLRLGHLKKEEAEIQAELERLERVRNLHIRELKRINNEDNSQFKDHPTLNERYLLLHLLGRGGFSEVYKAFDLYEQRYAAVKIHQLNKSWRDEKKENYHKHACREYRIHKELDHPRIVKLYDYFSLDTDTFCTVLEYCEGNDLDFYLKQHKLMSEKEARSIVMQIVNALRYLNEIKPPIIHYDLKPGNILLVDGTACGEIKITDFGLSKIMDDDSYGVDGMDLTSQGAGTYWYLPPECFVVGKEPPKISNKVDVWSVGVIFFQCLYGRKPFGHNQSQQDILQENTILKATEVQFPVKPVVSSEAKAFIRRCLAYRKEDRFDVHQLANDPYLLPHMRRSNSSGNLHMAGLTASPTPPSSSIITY
UniProt P12004: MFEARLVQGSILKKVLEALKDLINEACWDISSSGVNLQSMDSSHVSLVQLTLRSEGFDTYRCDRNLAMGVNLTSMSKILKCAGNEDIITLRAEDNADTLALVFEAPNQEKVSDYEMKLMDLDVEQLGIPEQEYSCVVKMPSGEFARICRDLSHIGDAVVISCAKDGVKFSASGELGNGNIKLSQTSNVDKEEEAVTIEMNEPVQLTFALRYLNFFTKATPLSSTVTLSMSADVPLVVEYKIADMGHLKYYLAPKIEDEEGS

Target: TLK1 N-terminal 9S/T to A mutant (human) (UniProt Q9UKI8)
Test: pull-down; HEK293T transfected with SFB-tagged TLK1 or TLK2 constructs; streptavidin beads; PCNA detected by Western blot

binding: binds
Substance: PCNA (from UniProt P12004 1-261)
